In PubChem BioAssay AID493014 (National Center for Advancing Translational Sciences (NCATS), 2011):
Out of some 340,000 compounds screened, about 170 (0.05%) were called active. The shares of active, inactive and inconclusive entries below differ from those in the screen. Calls follow the shape of the dose curve; as a rule, active = well fitted inhibition curve with a large enough effect in the signal ratio, with a control signal flat (not every such curve was filed as active); inconclusive = small, poorly fitted or top-dose-only effect, or effect the other way, or a change in a side signal; inactive = flat fitted curve, though single readings scatter; the % refers to the signal ratio. A potency beside an inconclusive call is a rough fit, not a confirmed value.

assay: qHTS Assay to Find Inhibitors of Chronic Active B-Cell Receptor Signaling; conditions: ABC-DLBCL IkBa-CBG/CBR reporter, luminescence ratio (green luciferase fused to IkBa over red control in TMD8 lymphoma cells), 4 h; activity change, negative = inhibition: at 46.1 µM (top of the series);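 as to activity change, negative = inhibition: plate controls were basal doxycycline-induced cells for no effect and cells given 10 µM MG132 for full effect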
How it was run: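 Cell line TMD8 (human ABC DLBCL), stably expressing tet-inducible CBG68-IkBa fusion and CBR; IMDM/0.5% FBS; cpd up to 46 uM; dox induction, 4 h, 37C/5% CO2; dual luminescence; green/red ratio; MG132 control.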
Potency is read from the fitted curve at half-maximal effect.

Compound	activity change, negative = inhibition	Potency
Cc1ccc(-c2cc(C(=O)NC3=NCCS3)c3cc(Br)ccc3n2)o1	inconclusive: -1.19%	–
O=C(Cc1ccc(Br)c2ccccc12)N/N=C/c1ccccn1	–	inconclusive: 5.62 µM [falling, partial curve]
CCOCc1nnc(NC(=O)c2ccc(NC(C)=O)cc2)s1	inconclusive: -1.44%	–
COc1ccc(/C=N/NC(=O)c2c(-c3ccccc3)noc2C)cc1[N+](=O)[O-]	inactive: -9.54%	–
O=C(NCc1ccco1)C1CCCN1S(=O)(=O)c1ccc2ccccc2c1 (configuration not stated)	–	inconclusive: 3.66 µM [falling, single point]
COC(=O)c1sccc1NC(=O)Nc1ccc(Cl)c(Cl)c1	–	inconclusive: 29.1 µM [rising, partial curve]
CCCn1c(=O)c2c(nc3n2CC(C)CN3Cc2ccccc2)n(C)c1=O (configuration not stated)	inconclusive: 6.13%	–
Cc1ccccc1N(Cc1cc(=O)[nH]c2ccccc12)C(=O)CCl	–	inconclusive: 22.4 µM [falling, single point]
CCOC(=O)c1cc2cc(-c3c(C(=O)OCC)oc4cc(O)cc(O)c4c3=O)ccc2o1	inconclusive: -17.9%	–
Cc1cccc(NC(=O)Cc2noc3ccccc23)c1	inconclusive: -16.9%	–
O=C(Nc1ccc(OCC(=O)N2CCN(S(=O)(=O)c3ccccc3)CC2)cc1)c1ccco1	inactive: -2.18%	–
O=C(COc1ccccc1[N+](=O)[O-])N(C1CCCCC1)C1CCS(=O)(=O)C1 (configuration not stated)	–	inconclusive: 20.6 µM [falling, partial curve]
CC(Oc1ccccc1)C(=O)NNC(=O)c1ccccn1 (configuration not stated)	inconclusive: 0.984%	–
CC(C)c1ccc(CNC(=O)CSCC(=O)Nc2ccc3ccccc3c2)cc1	inconclusive: -3.7%	–
CCOC(=O)CC(=O)CSc1nc2c(C)c(C)ccc2cc1C	inconclusive: 9.14%	–
CCC1Oc2ccc(C)cc2N(CC(=O)N(Cc2ccc(C)o2)C2CCCC2)C1=O (configuration not stated)	inconclusive: 9.38%	–
Cc1ccc(CC(=O)Nc2nccs2)cc1C	inconclusive: -0.732%	–
O=C(NCCc1ccccc1)c1ccc(Br)o1	inactive: 1.76%	–
COc1cc2c(cc1OC)CN(c1nc(CN3CCOCC3)nc3sc4c(c13)CCC(C)C4)CC2 (configuration not stated)	inactive: -1.35%	–
COC(=O)CCC(=O)Nc1ccc(Cl)c(Cl)c1	inactive: 5.53%	–
O=C(O)CCCc1nc(-c2ccc(Cl)cc2)no1	–	inconclusive: 5.8 µM [rising, partial curve]

Gathered by group, those above containing a thiophene ring, fused or not
Compound	activity change, negative = inhibition	Potency
COC(=O)c1sccc1NC(=O)Nc1ccc(Cl)c(Cl)c1	–	inconclusive: 29.1 µM [rising, partial curve]
COc1cc2c(cc1OC)CN(c1nc(CN3CCOCC3)nc3sc4c(c13)CCC(C)C4)CC2 (configuration not stated)	inactive: -1.35%	–

More structures.

Compound	activity change, negative = inhibition	Potency
O=C(Cn1c(=O)n2nc(-c3cccc(F)c3)nc2c2ccccc21)N1CCN(c2ccccc2F)CC1	inactive: 12.3%	–
Cn1ncc(Cl)c1C(=O)N/N=C/c1ccccn1	–	inconclusive: 20.6 µM [falling, partial curve, poor fit]
Cc1[nH]c2ccccc2c1C(=O)C(=O)N1CC=C(c2ccccc2)CC1	inconclusive: -7.66%	–
CC(C)(C)OC(=O)N1CCC[C@H]1C(=O)N/N=C/c1ccc2nccnc2c1	inconclusive: -1.73%	–
O=C(/C=C/c1ccc(O)cc1)c1ccccc1	–	inconclusive: 12.6 µM [rising, partial curve, poor fit]
COc1ccccc1NC(=O)c1ccccc1C(=O)O	–	inconclusive: 25.1 µM [falling, single point]
O=C(CCC1CCN(C(=O)c2cccc(Cl)c2F)CC1)Nc1ccccc1	inconclusive: -12.8%	–
N#CCCN(CCN1CCCC1)S(=O)(=O)c1ccc(-c2ccc([N+](=O)[O-])cc2)cc1	inactive: -12.9%	–
CC1(C)NC(=O)N(CCCOc2ccccc2Br)C1=O	inconclusive: 1.46%	–
O=C(Nc1ccc2c(c1)OCO2)N1CCN(c2cccc(C(F)(F)F)c2)CC1	inactive: -2.58%	–
O=C(NC1CCCCC1)c1cc(-c2ccccc2O)on1	inconclusive: 247%	–
COc1ccc(NC(=O)c2ccccc2NC(=O)c2ccccc2)cc1	–	inconclusive: 0.562 µM [falling, partial curve, poor fit]
O=C(N/N=C\C=C\c1ccco1)C1COc2ccccc2O1 (configuration not stated)	–	inconclusive: 35.5 µM [falling, single point]
COc1ccc(N/C=C(\C#N)c2nc3ccccc3n2C)c(OC)c1	inconclusive: 11.4%	–
Cc1ccc(C(=O)Nc2cccc(NC(=O)c3ccc(C)c([N+](=O)[O-])c3)n2)cc1[N+](=O)[O-]	inconclusive: -17.3%	–
CCc1ccccc1NC(=O)c1ccccc1N1C(=O)C2C3C=CC(C3)C2C1=O (configuration not stated)	inconclusive: -4.47%	–
Nc1ccc2nc(-c3ccccn3)[nH]c2c1	inconclusive: -27.5%	–
COc1ccc(-c2cnc3c(-c4ccc(F)cc4)cnn3c2N)cc1	inconclusive: 3.98%	–
COc1ccc(NC2CCCN(C(=O)CSc3ccncc3)C2)cc1 (configuration not stated)	–	inconclusive: 6.31 µM [falling, single point]
COc1ccc(C)cc1Nc1n[n+](-c2ccccc2)c(-c2ccc(OC)c(OC)c2OC)s1	inactive: -18.4%	–
O=C(CC1C(=O)NCCN1C/C=C/c1ccccc1)NCCCC1CCCC1 (configuration not stated)	–	inconclusive: 35.5 µM [falling, single point]

Compound	activity change, negative = inhibition	Potency
CCOC(=O)c1sc(N/N=C/c2cc(Br)c(O)c(OC)c2)nc1C	–	inconclusive: 12.6 µM [falling, partial curve]
N/C(=N\OC(=O)CCCc1ccccc1)c1ccc([N+](=O)[O-])cc1	inconclusive: 3.05%	–
COc1ccc(Cl)cc1NC(=O)c1ccc2c(SCC(=O)O)c3c(nc2c1)CCCC3	inconclusive: 2.92%	–
COc1cccc2cc(C(=O)OCC(=O)NCc3ccc4c(c3)OCO4)c(=O)oc12	–	inconclusive: 31.6 µM [falling, single point]
N#Cc1c(Nc2ccccc2)s[nH]c1=O	inactive: 0.18%	–
CCOC(=O)C1(CCOc2ccccc2)CCN(Cc2ccc(NC(C)=O)cc2)CC1	inconclusive: 32.5%	–
Cc1ccc(Cl)cc1NC(=O)CSc1nnc(C)n1-c1ccccc1	inactive: 12.1%	–
COC(=O)CN1C(=O)NC2(CCCc3ccccc32)C1=O (configuration not stated)	inconclusive: 0.0228%	–
Cc1nc2ccc(NC(=O)c3ccc(Cl)s3)cc2s1	inactive: -17.9%	–
O=C(N/N=C/c1ccc(OC(=O)c2ccccc2)cc1)c1ccc(CN2CCOCC2)cc1	inactive: 15.5%	–
COC(=O)c1[nH]c2ccccc2c1NC(=O)CCN1CCN(C2CCCCC2)CC1	inactive: -0.619%	–
COc1ccc(OCc2cc(C(=O)N(C)Cc3cc(C4CC4)n[nH]3)no2)c(Cl)c1	inconclusive: -0.253%	–
O=C(NC1CC(=O)N(c2ccc3c(c2)OCCO3)C1)N1CCC(O)CC1 (configuration not stated)	inactive: -5.53%	–
Cc1c(CN2CCC(CO)(Cc3ccccc3)CC2)c2ccccc2n1C	inconclusive: -22.1%	–
O=C(NCCNC1CCC(c2ccccc2)CC1)c1ccc(F)cc1 (configuration not stated)	–	inconclusive: 12.6 µM [falling, single point]
O=C1NC(=Nc2ccc(F)cc2)CS1	–	inconclusive: 22.4 µM [falling, partial curve, poor fit]
CN(C)CC(=O)c1ccc(-c2ccccc2)cc1	inconclusive: 7.14%	–
COc1ccc(N2C(=O)CC(N(CCc3ccc(OC)c(OC)c3)C(=S)Nc3ccccc3)C2=O)cc1 (configuration not stated)	inconclusive: 18.1%	–
COc1cccc(OC)c1C(=O)Nc1c(C(=O)N2CCN(C)CC2)oc2ccccc12	inactive: -2.38%	–
CN(Cc1nc(CCc2ccccc2)no1)Cc1cccs1	inconclusive: 21.3%	–
O=[N+]([O-])c1ccc(Cl)cc1NCC1CCCO1 (configuration not stated)	inactive: -0.535%	–

Compound	activity change, negative = inhibition	Potency
CCC(C)C(NC(=O)c1ccccc1NC(=O)c1ccc(C)cc1)C(=O)O (configuration not stated)	–	inconclusive: 11.2 µM [falling, partial curve]
O=C(CN1CCC(n2nnc3cc(F)ccc32)CC1)NCCc1ccccc1	inactive: 12%	–
CCOc1ccc(NC(=O)CSc2nc(=O)[nH]c3c2CCC3)cc1	inactive: 1.04%	–
Cc1ccc(S(=O)(=O)NCC(=O)NCC(=O)N(C)Cc2ccc3ccccc3c2)cc1C	inactive: -12.9%	–
Cc1ccc(NC(=O)Nc2ccc3c(c2)nc(C)n3C)cc1C	inconclusive: 7.98%	–
Cc1cccc(NC(=O)c2ccccc2NC(=O)C2CCCCC2)c1C	inconclusive: 9.46%	–
COc1ccc(C(=O)N(Cc2ccc(N(C)C)cc2)C2CCS(=O)(=O)C2)cc1 (configuration not stated)	inconclusive: -2.83%	–
COc1ccc(N=CC2=C(O)CC(C)(C)CC2=O)cc1OC	inconclusive: -26.1%	–
CC(C)(C)OC(=O)NCCc1nnc(SCc2c(Cl)cccc2Cl)o1	–	inconclusive: 29.1 µM [rising, single point]
O=C1/C(=C/c2cccnc2)CC/C1=C\c1cccnc1	–	inconclusive: 35.5 µM [falling, single point]
Cc1ccccc1CNC(=O)C(=O)NCC1CCCN1S(=O)(=O)c1ccccc1 (configuration not stated)	–	inconclusive: 29.1 µM [falling, single point]
O=C1COc2ccc(-c3csc(NCCc4ccccc4)n3)cc2N1	inconclusive: 1.43%	–
COc1ccc(OC)c(-c2csc(NC(=O)COC(=O)C3CCC3)n2)c1	inactive: -0.0837%	–
CC(NC(=O)CSc1nnc(CC(=O)Nc2ccc(Cl)c(Cl)c2)n1C)c1ccccc1 (configuration not stated)	–	inconclusive: 18.4 µM [falling, single point]
CN(C)c1ccc(C(CC(=O)c2ccccc2)C2CCCCC2=O)cc1 (configuration not stated)	inconclusive: 16.3%	–
Nc1[nH]n(-c2ccccc2)c(=O)c1N=Nc1ccc2c(c1)OCCO2	–	inconclusive: 12.6 µM [falling, single point]
Cc1ccc(-c2ccc(/C=N/NC(=O)CN3CCCC3)o2)cc1Cl	inactive: 13.5%	–
COc1ccc(C(=O)NCCCN2CCN(CCCNC(=O)c3ccc(OC)c(OC)c3)CC2)cc1OC	inactive: -9.19%	–
Cc1ccc2[nH]c(=O)c(CN(CCc3ccccc3)Cc3nnnn3CC3CCCO3)cc2c1 (configuration not stated)	inconclusive: -0.0009%	–
